# Data: PubChem BioAssay AID662 (National Center for Advancing Translational Sciences (NCATS), 2007)
# This is one part of the list. Shown are side measurements of this screen, not its main read-out; they come without a call. The list favours compounds with an active or inconclusive main result. Potencies come from curve fits of mixed quality, noted in brackets.
# Experiment: Cell signaling CRE-BLA (Fsk stim)
# Details: CHO CRE-bla reporter (cAMP response element driving beta-lactamase), forskolin EC10, beta-lactamase ratio; measured here: 460 nm blue channel
# How it was run: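 qHTS titration format; CRE-bla CHO reporter; stimulus EC10 NKH 477, a water-soluble forskolin. Read: CCF4 460/530 nm ratio. Potency expressed as AC50 for activators or inhibitors.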
row,SMILES,AC50
1,O=C(CSc1cccc2cccnc12)NCc1ccco1,"10 µM [falling, partial curve]"
2,CN(C)c1ncc2nc(CCc3ccccc3)c(=O)n(Cc3ccc(F)cc3)c2n1,"0.1 µM [rising, full curve, poor fit]"
3,CCCN(Cc1ccccc1)C(=O)Nc1ccc2c(c1)nnn2C,"6.31 µM [rising, partial curve, poor fit]"
4,Cc1ccc2c(c1)c1ncnc(N3CCN(c4ccccc4)CC3)c1n2C,"12.6 µM [rising, partial curve]"
5,CCn1c(=O)cc(OCC(=O)NCc2ccco2)c2ccccc21,"12.6 µM [rising, partial curve]"
6,COC(=O)Cn1ncn2c(cc3oc(C)cc32)c1=O,"20 µM [falling, partial curve, poor fit]"
7,COc1ccc(CNc2ncnc3ccc(-c4ccc5c(c4)OCO5)cc23)c(OC)c1,"10 µM [rising, partial curve]"
8,CN(C)Cc1ccccc1-c1ccc2ncnc(N(C)Cc3ccco3)c2c1,"3.98 µM [rising, full curve]"
9,O=C(NCc1ccccc1)c1cc(S(=O)(=O)N2CCOCC2)ccc1F,"0.126 µM [falling, partial curve, poor fit]"
10,C=CCn1c2ccccc2c2nnc(SCc3ccc4nonc4c3)nc21,"1.58 µM [rising, full curve]"
11,CCOc1ccc(-n2c(COc3ccccc3)nnc2SCC(N)=O)cc1,"15.8 µM [rising, partial curve, poor fit]"
12,Cn1c(CCCNC(=O)c2ccccc2)nc2ccccc21,"2.51 µM [falling, single point]"
13,CCOC(=O)CC(=O)CSc1nnc2c(n1)[nH]c1ccccc12,"12.6 µM [rising, single point]"
14,COC(=O)c1cc(Br)c(=O)n(Cc2ccc(OC)c(OC)c2)c1,"15.8 µM [rising, single point]"
15,c1ccc(Cn2c(-c3ccco3)nc3nc4ccccc4nc32)cc1,"12.6 µM [rising, partial curve]"
16,CS(=O)(=O)N1CCCC(C(=O)NCCCN2CCN(Cc3ccccc3)CC2)C1 (stereo not drawn),"2 µM [rising, partial curve]"
17,COC(=O)c1ccc(NC(=O)Nc2ccc(F)cc2)cc1,"5.01 µM [falling, single point]"
18,CCOc1cc(S(=O)(=O)N2CCOCC2)ccc1F,"12.6 µM [falling, partial curve]"
19,COc1cccc(Nc2nnc(SCn3nnc4ccccc4c3=O)s2)c1,"20 µM [rising, single point]"
20,CN(C)c1ncc2ncc(=O)n(CCc3ccccc3)c2n1,"25.1 µM [rising, single point]"
21,COc1ccc(CNc2nc(-c3ccccc3OC)nc3ccccc23)c(OC)c1,"10 µM [rising, partial curve]"
22,COc1cccc(Nc2ncc3nc(CCc4ccccc4)c(=O)n(CCC#N)c3n2)c1,"5.01 µM [rising, partial curve]"
23,COc1ccc(C(C)=O)cc1CN1C(=O)C(C)N(c2ccc(C)cc2)C1=O (stereo not drawn),"5.01 µM [falling, single point]"

# Rewritten as tab-separated lines: entries from further up.
row	SMILES	AC50
13	CCOC(=O)CC(=O)CSc1nnc2c(n1)[nH]c1ccccc12	12.6 µM [rising, single point]
14	COC(=O)c1cc(Br)c(=O)n(Cc2ccc(OC)c(OC)c2)c1	15.8 µM [rising, single point]
15	c1ccc(Cn2c(-c3ccco3)nc3nc4ccccc4nc32)cc1	12.6 µM [rising, partial curve]
16	CS(=O)(=O)N1CCCC(C(=O)NCCCN2CCN(Cc3ccccc3)CC2)C1 (stereo not drawn)	2 µM [rising, partial curve]

# Next compounds

row,SMILES,AC50
1,Cn1c(=O)n(Cc2ccc(F)cc2)c(=O)c2c1nc1n2CCCN1C1CCCCC1,"10 µM [rising, partial curve]"
2,COc1ccccc1-c1cc(NCc2ccccc2)ncn1,"5.01 µM [rising, single point]"
3,O=C(O)c1cc([N+](=O)[O-])ccc1NCCCc1ccccc1,"31.6 µM [falling, single point]"
4,COC(=O)c1ccc(CSc2nc3c(cnn3-c3ccc(F)cc3)c(=O)[nH]2)o1,"1.26 µM [rising, full curve]"
5,O=c1c2cccnc2[nH]c(=S)n1CCCN1CCN(c2ccccc2F)CC1,"0.316 µM [rising, single point]"
6,COc1ccccc1NC(=O)CN1C(=O)C2(OCCCO2)c2ccccc21,"15.8 µM [falling, partial curve, poor fit]"
7,COc1ccc(N(C)S(=O)(=O)c2cccc3cccnc23)c(OC)c1,"3.98 µM [falling, partial curve, poor fit]"
8,COc1cccc(NC(=O)CN2C(=O)C3(OCCCO3)c3ccccc32)c1,"3.16 µM [falling, full curve]"
9,CCOC(=O)C1=C(C)NC2=C(C(=O)CC(C)(C)C2)C1c1cccc(C)n1 (stereo not drawn),"10 µM [rising, single point]"
10,COc1cccc(OC)c1C(=O)N1CCN(Cc2ccccc2C)CC1,"0.794 µM [rising, partial curve]"
11,COc1cc2c(cc1OC)[C@@H]1C(=O)c3ccc4c(c3O[C@@H]1CO2)C=CC(C)(C)O4,"20 µM [falling, partial curve, poor fit]"
12,Cn1c(C(=O)NCCCN2CCCCCC2)cc2c(=O)n(C)c3ccccc3c21,"10 µM [rising, partial curve]"
13,COC(=O)c1cc(=O)n(Cc2cccs2)c(=NCc2cccs2)s1,"0.00398 µM [falling, full curve, poor fit]"
14,CSc1nsc(SCC(=O)N2CCCc3ccccc32)n1,"25.1 µM [falling, single point]"
15,O=c1c(CCc2ccccc2)nc2cncnc2n1C1CC1,"0.251 µM [rising, full curve]"
16,CCOc1ccc(-c2nc(CSc3nncs3)cs2)cc1OC,"3.98 µM [rising, partial curve]"
17,CN=C1c2ccccc2CN1c1cccc(C(=O)OC)c1,"12.6 µM [rising, single point]"
18,CC(Oc1ccccc1)C(=O)N1CCCc2ccccc21 (stereo not drawn),"1 µM [falling, partial curve, poor fit]"
19,O=C1CC(c2ccc(F)cc2)Cc2nc(N3CCN(c4ccccc4)CC3)ncc21 (stereo not drawn),"10 µM [falling, single point]"
20,COc1cc(OC)cc(C(C(=O)NCc2ccccc2)N(Cc2ccco2)C(=O)c2ccno2)c1 (stereo not drawn),"3.98 µM [falling, single point]"
21,O=C(Cn1cnc2c(nnn2Cc2ccc(Cl)cc2)c1=O)N1CCCc2ccccc21,"2.51 µM [rising, single point]"
22,CCOc1ccc2nc(C)cc(C(=O)O)c2c1,"0.2 µM [falling, full curve]"
23,COc1ccc(OC)c(C2C(C(=O)c3cccs3)=C(O)C(=O)N2CCN(C)C)c1 (stereo not drawn),"1.26 µM [falling, partial curve]"

row,SMILES,AC50
1,CNC(=O)c1[nH]cnc1C(=O)Nc1cccc(OC)c1,"12.6 µM [rising, partial curve]"
2,c1ccc(-c2ccc(-c3nc(-c4ccccn4)no3)cc2)cc1,"25.1 µM [falling, single point]"
3,CN(C)c1ncc2nc(-c3cccs3)c(=O)n(Cc3cccs3)c2n1,"1 µM [rising, full curve]"
4,Cc1ccc(C)n1-n1c(C)nc2scc(-c3cccs3)c2c1=O,"12.6 µM [rising, partial curve]"
5,Cc1csc(NC(=O)C2CCCN(S(=O)(=O)c3ccc(Br)s3)C2)n1 (stereo not drawn),"31.6 µM [falling, single point]"
6,CCC(=O)Nc1ccc(NC(=O)c2ccccn2)cn1,"0.0126 µM [falling, full curve, poor fit]"
7,CCOc1c(N2CCCCC2)c(=O)c1=O,"25.1 µM [rising, single point]"
8,CN(C)S(=O)(=O)c1cccc(C(=O)OCC(=O)Nc2sccc2C(N)=O)c1,"2.51 µM [rising, single point]"
9,N=C(N)SCC(=O)O,"0.0631 µM [rising, full curve, poor fit]"
10,C=CCOc1c(CNc2nccs2)cccc1OCC,"2.51 µM [falling, partial curve]"
11,COc1cccc(C2=NO[C@@H]3C(=O)N(Cc4ccccc4)C(=O)[C@H]23)c1OC,"0.01 µM [falling, full curve, poor fit]"
12,COc1ccc2[nH]cc(CCNc3nc(-c4ccccc4OC)nc4ccccc34)c2c1,"10 µM [rising, partial curve]"
13,Cc1cccc(NS(=O)(=O)c2ccc(C)c(C(=O)OCC(=O)Nc3cc(C)on3)c2)c1,"20 µM [falling, partial curve]"
14,COC(=O)c1cccc(NC(=O)c2nn(C)c(=O)c3ccccc23)c1,"10 µM [rising, partial curve]"
15,N#Cc1nc(-c2ccco2)oc1NCc1ccc(F)cc1,"10 µM [rising, single point]"
16,CCN(c1ccccc1)S(=O)(=O)c1cccc(C(=O)O)c1,"3.98 µM [falling, single point]"
17,CCN(CC)C(=O)CSc1nnc(-c2ccccn2)n1-c1ccc(C)c(C)c1,"25.1 µM [rising, single point]"
18,CN1CCN(c2ncc3nc(-c4cccc(C#N)c4)c(=O)n(C)c3n2)CC1,"10 µM [rising, partial curve]"
19,Cc1ccc(Cn2ncc3c(N4CCN(c5ccccc5C)CC4)ncnc32)cc1,"15.8 µM [falling, partial curve]"
20,COc1ccc(C(=O)N(CN2CCCC2=O)c2ccc(C)cc2)cc1,"2 µM [falling, partial curve]"
21,COc1ccc2nc(NCCCNC(=O)c3cc(OC)c(OC)c(OC)c3)c(C#N)cc2c1,"12.6 µM [rising, partial curve]"
22,Cc1nc(N2CCN(Cc3nc4ccccc4[nH]3)CC2)c2oc3ccccc3c2n1,"5.01 µM [rising, partial curve]"
